The list shows a part of the results. Hit calls seldom repeat between salt and free forms of one compound.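 In K562 cells expressing nanoluciferase-fused kinases, luminescence was recorded at 4 h intervals between 2 and 18 h, normalized as percent of control with DMSO at 100% and a positive control at 0%. A significant (2 sigma) signal drop marks a time point as decreased. The authors' rule for a hit is not shown and takes in more than the number of time points.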
What was measured:
Test in all cases: kinase-Nluc reporter destabilization hit call (1 = scored as downregulated) (binary); higher = compound decreases kinase abundance
Details in all cases: K562; 2-18 h
PDPK1 = PDPK1 (UniProt O15530)
PIK4CA = PIK4CA (UniProt P42356)
PIK4CB = PIK4CB (UniProt Q9UBF8)
PLK1 = PLK1 (UniProt P53350)
PRKAA1 = PRKAA1 (UniProt Q13131)
PRKCA = PRKCA (UniProt P17252)
PTK2 = PTK2 (UniProt Q05397)
PTK2B = PTK2B (UniProt Q14289)
RAF1 = RAF1 (UniProt P04049)
[1] = biological target: RAF1_S257L (clone: RAF1_mut) (UniProt P04049)
RET = RET (UniProt P07949)
[2] = biological target: RET_M918T (clone: RET_mut) (UniProt P07949)
RIOK1 = RIOK1 (UniProt Q9BRS2)
RIPK1 = RIPK1 (UniProt Q13546)
RIPK2 = RIPK2 (UniProt O43353)
ROR2 = ROR2 (UniProt Q01974)
RPS6KA1 = RPS6KA1 (UniProt Q15418)
SPHK1 = SPHK1 (UniProt Q9NYA1)
SRC = SRC (UniProt P12931)
STK24 = STK24 (UniProt Q9Y6E0)

Sequences of proteins named here, by UniProt entry; tags and fusion partners are left off. A change or cut given only in a name is not applied to a line headed by its entry.
UniProt Q9UBF8: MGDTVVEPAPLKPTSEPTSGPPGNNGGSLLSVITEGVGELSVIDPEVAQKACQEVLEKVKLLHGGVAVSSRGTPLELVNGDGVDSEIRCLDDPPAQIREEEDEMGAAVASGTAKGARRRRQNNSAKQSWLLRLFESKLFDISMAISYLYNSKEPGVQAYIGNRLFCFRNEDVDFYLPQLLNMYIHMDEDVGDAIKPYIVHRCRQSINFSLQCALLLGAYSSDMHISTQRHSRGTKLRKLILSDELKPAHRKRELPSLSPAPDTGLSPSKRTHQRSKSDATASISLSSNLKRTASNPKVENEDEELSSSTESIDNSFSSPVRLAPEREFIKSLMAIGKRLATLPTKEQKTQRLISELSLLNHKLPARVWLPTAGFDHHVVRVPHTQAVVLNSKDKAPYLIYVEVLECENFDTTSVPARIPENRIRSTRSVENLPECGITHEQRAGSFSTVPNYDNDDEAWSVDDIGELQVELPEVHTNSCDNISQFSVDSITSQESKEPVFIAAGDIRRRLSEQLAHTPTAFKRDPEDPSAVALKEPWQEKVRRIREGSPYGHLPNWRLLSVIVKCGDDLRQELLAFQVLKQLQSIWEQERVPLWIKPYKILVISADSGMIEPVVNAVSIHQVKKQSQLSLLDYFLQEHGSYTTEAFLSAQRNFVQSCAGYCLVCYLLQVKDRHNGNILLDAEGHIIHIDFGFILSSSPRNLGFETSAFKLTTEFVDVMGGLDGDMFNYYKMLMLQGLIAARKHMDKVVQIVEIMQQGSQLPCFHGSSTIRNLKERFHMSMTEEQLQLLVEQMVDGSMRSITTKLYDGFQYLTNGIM
UniProt P07949, whole entry, looked up: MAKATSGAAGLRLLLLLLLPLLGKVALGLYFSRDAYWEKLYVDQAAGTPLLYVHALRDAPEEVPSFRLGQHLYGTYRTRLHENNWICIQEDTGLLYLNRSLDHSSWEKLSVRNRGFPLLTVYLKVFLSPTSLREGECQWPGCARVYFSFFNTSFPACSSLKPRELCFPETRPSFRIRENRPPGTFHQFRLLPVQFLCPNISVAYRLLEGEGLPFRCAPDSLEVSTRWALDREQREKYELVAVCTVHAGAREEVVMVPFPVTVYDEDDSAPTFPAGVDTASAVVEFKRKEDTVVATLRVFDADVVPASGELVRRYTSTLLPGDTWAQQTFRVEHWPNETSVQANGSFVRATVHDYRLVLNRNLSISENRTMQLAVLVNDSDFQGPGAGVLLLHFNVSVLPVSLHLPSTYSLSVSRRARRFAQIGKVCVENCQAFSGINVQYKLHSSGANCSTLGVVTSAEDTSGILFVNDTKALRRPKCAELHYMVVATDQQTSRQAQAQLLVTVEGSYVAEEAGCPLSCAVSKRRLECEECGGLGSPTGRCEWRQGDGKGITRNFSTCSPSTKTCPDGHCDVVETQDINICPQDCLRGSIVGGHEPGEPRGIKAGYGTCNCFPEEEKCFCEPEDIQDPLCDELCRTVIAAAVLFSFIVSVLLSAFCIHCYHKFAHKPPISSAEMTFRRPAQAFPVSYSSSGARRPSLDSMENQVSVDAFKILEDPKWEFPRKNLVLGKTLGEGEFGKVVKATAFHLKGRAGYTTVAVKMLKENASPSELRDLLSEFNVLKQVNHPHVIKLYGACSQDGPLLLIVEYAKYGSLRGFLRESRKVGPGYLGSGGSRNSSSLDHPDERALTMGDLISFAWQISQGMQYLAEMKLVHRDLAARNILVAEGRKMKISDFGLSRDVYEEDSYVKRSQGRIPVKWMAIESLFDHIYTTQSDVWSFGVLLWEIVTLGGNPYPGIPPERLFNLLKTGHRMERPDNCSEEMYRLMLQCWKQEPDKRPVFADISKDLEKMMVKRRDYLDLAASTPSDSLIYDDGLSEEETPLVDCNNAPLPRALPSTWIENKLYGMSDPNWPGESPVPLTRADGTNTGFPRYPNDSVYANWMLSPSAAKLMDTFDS
UniProt P07949, whole entry M918T, looked up: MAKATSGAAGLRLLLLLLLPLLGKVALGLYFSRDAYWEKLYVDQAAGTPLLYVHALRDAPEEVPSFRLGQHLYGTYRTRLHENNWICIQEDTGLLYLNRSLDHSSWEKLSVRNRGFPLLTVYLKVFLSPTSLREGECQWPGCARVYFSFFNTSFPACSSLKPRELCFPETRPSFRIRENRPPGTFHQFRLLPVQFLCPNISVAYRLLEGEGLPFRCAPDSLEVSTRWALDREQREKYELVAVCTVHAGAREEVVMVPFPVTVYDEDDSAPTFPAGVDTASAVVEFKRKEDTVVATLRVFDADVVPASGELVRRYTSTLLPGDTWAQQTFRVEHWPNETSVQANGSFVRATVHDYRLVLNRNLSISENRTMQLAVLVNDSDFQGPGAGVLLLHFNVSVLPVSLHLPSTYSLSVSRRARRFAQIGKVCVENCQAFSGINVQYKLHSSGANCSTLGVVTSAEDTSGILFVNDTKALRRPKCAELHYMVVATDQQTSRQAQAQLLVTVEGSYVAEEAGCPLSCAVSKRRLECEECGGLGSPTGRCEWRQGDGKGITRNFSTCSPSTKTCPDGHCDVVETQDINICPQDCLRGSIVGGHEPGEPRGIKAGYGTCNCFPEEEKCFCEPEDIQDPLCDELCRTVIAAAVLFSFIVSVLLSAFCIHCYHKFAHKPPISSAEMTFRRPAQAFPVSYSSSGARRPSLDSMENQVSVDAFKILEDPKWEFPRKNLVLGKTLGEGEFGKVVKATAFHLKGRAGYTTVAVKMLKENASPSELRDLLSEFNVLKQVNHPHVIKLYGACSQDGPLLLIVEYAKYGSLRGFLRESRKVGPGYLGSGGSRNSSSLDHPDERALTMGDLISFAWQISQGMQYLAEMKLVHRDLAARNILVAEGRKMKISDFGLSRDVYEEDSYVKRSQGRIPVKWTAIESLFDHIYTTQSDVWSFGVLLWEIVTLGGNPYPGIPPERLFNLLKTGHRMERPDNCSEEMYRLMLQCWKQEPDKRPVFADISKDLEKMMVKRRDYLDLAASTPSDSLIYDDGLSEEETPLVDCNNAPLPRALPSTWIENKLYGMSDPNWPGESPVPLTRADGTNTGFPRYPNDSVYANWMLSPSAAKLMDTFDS
UniProt Q13546: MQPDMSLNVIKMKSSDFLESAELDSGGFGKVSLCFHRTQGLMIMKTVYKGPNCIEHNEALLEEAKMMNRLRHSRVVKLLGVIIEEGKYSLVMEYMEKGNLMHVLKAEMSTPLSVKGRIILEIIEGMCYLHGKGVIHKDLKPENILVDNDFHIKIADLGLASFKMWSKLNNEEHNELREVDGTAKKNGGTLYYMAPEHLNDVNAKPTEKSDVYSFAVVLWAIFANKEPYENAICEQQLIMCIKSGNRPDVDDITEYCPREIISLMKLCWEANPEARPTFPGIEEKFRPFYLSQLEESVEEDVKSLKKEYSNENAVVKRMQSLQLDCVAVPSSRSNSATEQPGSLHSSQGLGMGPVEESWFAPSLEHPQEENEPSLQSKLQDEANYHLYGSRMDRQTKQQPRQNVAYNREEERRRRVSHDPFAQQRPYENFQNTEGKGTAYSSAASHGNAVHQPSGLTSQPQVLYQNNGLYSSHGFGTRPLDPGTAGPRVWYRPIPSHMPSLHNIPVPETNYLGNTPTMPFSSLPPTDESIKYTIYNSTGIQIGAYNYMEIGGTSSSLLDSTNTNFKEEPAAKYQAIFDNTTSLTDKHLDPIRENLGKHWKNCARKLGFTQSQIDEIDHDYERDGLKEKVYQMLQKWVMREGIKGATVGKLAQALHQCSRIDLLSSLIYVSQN
UniProt Q01974, whole entry: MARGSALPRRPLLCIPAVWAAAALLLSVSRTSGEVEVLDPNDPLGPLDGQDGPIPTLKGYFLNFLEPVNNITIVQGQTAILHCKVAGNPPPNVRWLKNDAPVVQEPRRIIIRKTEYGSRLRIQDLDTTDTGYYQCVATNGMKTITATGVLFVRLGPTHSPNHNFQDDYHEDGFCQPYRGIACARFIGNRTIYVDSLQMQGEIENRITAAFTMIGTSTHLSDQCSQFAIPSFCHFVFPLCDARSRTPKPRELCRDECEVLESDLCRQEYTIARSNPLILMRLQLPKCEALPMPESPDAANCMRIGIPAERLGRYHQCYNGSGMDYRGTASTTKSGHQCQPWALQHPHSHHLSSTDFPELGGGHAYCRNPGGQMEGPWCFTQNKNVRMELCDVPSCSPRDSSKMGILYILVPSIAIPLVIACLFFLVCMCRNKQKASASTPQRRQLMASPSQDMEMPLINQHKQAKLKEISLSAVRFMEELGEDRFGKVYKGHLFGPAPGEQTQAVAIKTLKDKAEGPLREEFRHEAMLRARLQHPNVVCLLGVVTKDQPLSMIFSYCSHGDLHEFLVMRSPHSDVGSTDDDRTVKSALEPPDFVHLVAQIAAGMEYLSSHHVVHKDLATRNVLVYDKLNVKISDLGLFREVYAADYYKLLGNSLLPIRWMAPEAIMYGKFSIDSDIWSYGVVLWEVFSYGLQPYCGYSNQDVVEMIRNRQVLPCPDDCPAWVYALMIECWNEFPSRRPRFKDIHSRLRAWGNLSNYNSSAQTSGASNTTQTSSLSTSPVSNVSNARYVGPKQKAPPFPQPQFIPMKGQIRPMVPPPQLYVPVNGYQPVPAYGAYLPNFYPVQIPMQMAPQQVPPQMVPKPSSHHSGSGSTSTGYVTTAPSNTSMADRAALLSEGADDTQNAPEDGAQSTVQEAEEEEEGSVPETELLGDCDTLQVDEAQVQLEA
UniProt Q9NYA1, whole entry: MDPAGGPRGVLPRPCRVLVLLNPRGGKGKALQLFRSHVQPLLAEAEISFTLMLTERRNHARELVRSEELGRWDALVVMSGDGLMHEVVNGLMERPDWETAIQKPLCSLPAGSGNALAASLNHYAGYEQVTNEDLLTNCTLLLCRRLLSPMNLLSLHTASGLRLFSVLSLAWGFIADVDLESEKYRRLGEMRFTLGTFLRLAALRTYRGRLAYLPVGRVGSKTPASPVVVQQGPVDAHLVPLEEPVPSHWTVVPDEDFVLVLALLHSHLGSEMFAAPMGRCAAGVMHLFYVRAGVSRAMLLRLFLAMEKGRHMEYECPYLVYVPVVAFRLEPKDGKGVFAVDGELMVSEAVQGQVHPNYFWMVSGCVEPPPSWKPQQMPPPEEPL
UniProt Q9Y6E0: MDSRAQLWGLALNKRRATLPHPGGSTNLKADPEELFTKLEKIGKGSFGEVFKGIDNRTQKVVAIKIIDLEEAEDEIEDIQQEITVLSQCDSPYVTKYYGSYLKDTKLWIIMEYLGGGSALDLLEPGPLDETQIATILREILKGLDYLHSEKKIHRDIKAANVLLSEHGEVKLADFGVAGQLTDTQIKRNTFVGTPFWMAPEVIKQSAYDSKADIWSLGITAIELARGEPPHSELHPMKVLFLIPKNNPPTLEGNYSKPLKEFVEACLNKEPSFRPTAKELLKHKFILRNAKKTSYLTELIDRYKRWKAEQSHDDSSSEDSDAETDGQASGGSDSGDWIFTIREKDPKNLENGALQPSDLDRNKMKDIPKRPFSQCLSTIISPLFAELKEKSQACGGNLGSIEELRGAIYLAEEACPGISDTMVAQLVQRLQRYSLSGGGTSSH

Measured: kinase-Nluc reporter destabilization hit call

O=C(c1ccc(Nc2nccc(-c3cc4ccccc4s3)n2)cc1)N1CCC(N2CCCC2)CC1 (2.5 µM)
inactive: PDPK1 = 0 | PIK4CA 0 | PIK4CB 0 | PLK1 = 0 | PRKAA1 = 0 | PRKCA 0 | PTK2 = 0 | PTK2B 0 | RAF1 = 0 | [1] 0 | RET 0 | [2] 0 | RIOK1 = 0 | RIPK1 = 0 | RIPK2 = 0 | ROR2 = 0 | RPS6KA1 = 0 | SPHK1 = 0 | SRC 0 | STK24 = 0

CN(C)Cc1cccc(N=C(c2ccccc2)c2c(O)[nH]c3cc(C(=O)N(C)C)ccc23)c1 (10 µM)
inactive: PDPK1 = 0 | PIK4CA 0 | PIK4CB 0 | PLK1 = 0 | PRKAA1 = 0 | PRKCA 0 | PTK2 = 0 | PTK2B 0 | RAF1 = 0 | [1] 0 | RET 0 | [2] 0 | RIOK1 = 0 | RIPK1 = 0 | RIPK2 = 0 | ROR2 = 0 | RPS6KA1 = 0 | SPHK1 = 0 | SRC 0 | STK24 = 0

C=CC(=O)N1CCC[C@@H](n2nc(C(=O)Nc3ccc(CC(=O)N(C)C)c(C)c3C)c3c(N)ncnc32)C1 (10 µM)
inactive: PDPK1 = 0 | PIK4CA 0 | PIK4CB 0 | PLK1 = 0 | PRKAA1 = 0 | PRKCA 0 | PTK2 = 0 | PTK2B 0 | RAF1 = 0 | [1] 0 | RET 0 | [2] 0 | RIOK1 = 0 | RIPK1 = 0 | RIPK2 = 0 | ROR2 = 0 | RPS6KA1 = 0 | SPHK1 = 0 | SRC 0 | STK24 = 0

Cc1ccc(-c2ccc3c(ccc4sc5c(c43)NC[C@@H](C)NC5=O)n2)cn1 (10 µM)
inactive: PDPK1 = 0 | PIK4CA 0 | PIK4CB 0 | PLK1 = 0 | PRKAA1 = 0 | PRKCA 0 | PTK2 = 0 | PTK2B 0 | RAF1 = 0 | [1] 0 | RET 0 | [2] 0 | RIOK1 = 0 | RIPK1 = 0 | RIPK2 = 0 | ROR2 = 0 | RPS6KA1 = 0 | SPHK1 = 0 | SRC 0 | STK24 = 0

No new results follow: 2 of the compounds above.
C=CC(=O)N1CCC[C@@H](n2nc(C(=O)Nc3ccc(CC(=O)N(C)C)c(C)c3C)c3c(N)ncnc32)C1 (10 µM)
inactive: PDPK1 = 0 | PIK4CA 0 | PIK4CB 0 | PLK1 = 0 | PRKAA1 = 0 | PRKCA 0 | PTK2 = 0 | PTK2B 0 | RAF1 = 0 | [1] 0 | RET 0 | [2] 0 | RIOK1 = 0 | RIPK1 = 0 | RIPK2 = 0 | ROR2 = 0 | RPS6KA1 = 0 | SPHK1 = 0 | SRC 0 | STK24 = 0

Cc1ccc(-c2ccc3c(ccc4sc5c(c43)NC[C@@H](C)NC5=O)n2)cn1 (10 µM)
inactive: PDPK1 = 0 | PIK4CA 0 | PIK4CB 0 | PLK1 = 0 | PRKAA1 = 0 | PRKCA 0 | PTK2 = 0 | PTK2B 0 | RAF1 = 0 | [1] 0 | RET 0 | [2] 0 | RIOK1 = 0 | RIPK1 = 0 | RIPK2 = 0 | ROR2 = 0 | RPS6KA1 = 0 | SPHK1 = 0 | SRC 0 | STK24 = 0

(more compounds)

O=C(O)CCc1ccc(NCc2cccc(Oc3ccccc3)c2)cc1 (10 µM)
inactive: PDPK1 = 0 | PIK4CA 0 | PIK4CB 0 | PLK1 = 0 | PRKAA1 = 0 | PRKCA 0 | PTK2 = 0 | PTK2B 0 | RAF1 = 0 | [1] 0 | RET 0 | [2] 0 | RIOK1 = 0 | RIPK1 = 0 | RIPK2 = 0 | ROR2 = 0 | RPS6KA1 = 0 | SPHK1 = 0 | SRC 0 | STK24 = 0

CC[C@@H]1[C@H](F)C(=O)N[C@@H]1COc1nccc2cc(C(N)=O)c(OC)cc12 (10 µM)
inactive: PDPK1 = 0 | PIK4CA 0 | PIK4CB 0 | PLK1 = 0 | PRKAA1 = 0 | PRKCA 0 | PTK2 = 0 | PTK2B 0 | RAF1 = 0 | [1] 0 | RET 0 | [2] 0 | RIOK1 = 0 | RIPK1 = 0 | RIPK2 = 0 | ROR2 = 0 | RPS6KA1 = 0 | SPHK1 = 0 | SRC 0 | STK24 = 0

CCc1cccc(CC)c1NC(=O)c1nn(C)c2c1CCc1cnc(Nc3ccc(C(=O)NC4CCN(C)CC4)cc3OC(F)(F)F)nc1-2 (2 µM)
inactive: PDPK1 = 0 | PIK4CA 0 | PIK4CB 0 | PLK1 = 0 | PRKAA1 = 0 | PRKCA 0 | PTK2 = 0 | PTK2B 0 | RAF1 = 0 | [1] 0 | RET 0 | [2] 0 | RIOK1 = 0 | RIPK1 = 0 | RIPK2 = 0 | ROR2 = 0 | RPS6KA1 = 0 | SPHK1 = 0 | SRC 0 | STK24 = 0

COC(=O)N[C@@H](C)CNc1nccc(-c2cn(C(C)C)nc2-c2cc(Cl)cc(NS(C)(=O)=O)c2F)n1 [Encorafenib] (10 µM)
inactive: PDPK1 = 0 | PIK4CA 0 | PIK4CB 0 | PLK1 = 0 | PRKAA1 = 0 | PRKCA 0 | PTK2 = 0 | PTK2B 0 | RAF1 = 0 | [1] 0 | RET 0 | [2] 0 | RIOK1 = 0 | RIPK1 = 0 | RIPK2 = 0 | ROR2 = 0 | RPS6KA1 = 0 | SPHK1 = 0 | SRC 0 | STK24 = 0

N#C/C(=C\c1ccc2oc(=O)[nH]c2c1)C(=O)c1ccc(O)c(O)c1 (10 µM)
inactive: PDPK1 = 0 | PIK4CA 0 | PIK4CB 0 | PLK1 = 0 | PRKAA1 = 0 | PRKCA 0 | PTK2 = 0 | PTK2B 0 | RAF1 = 0 | [1] 0 | RET 0 | [2] 0 | RIOK1 = 0 | RIPK1 = 0 | RIPK2 = 0 | ROR2 = 0 | RPS6KA1 = 0 | SPHK1 = 0 | SRC 0 | STK24 = 0

O=C(O)c1ccc(N2N=C(Cc3ccccc3)C(=Cc3ccc(-c4ccccc4F)o3)C2=O)cc1 (10 µM)
inactive: PDPK1 = 0 | PIK4CA 0 | PIK4CB 0 | PLK1 = 0 | PRKAA1 = 0 | PRKCA 0 | PTK2 = 0 | PTK2B 0 | RAF1 = 0 | [1] 0 | RET 0 | [2] 0 | RIOK1 = 0 | RIPK1 = 0 | RIPK2 = 0 | ROR2 = 0 | RPS6KA1 = 0 | SPHK1 = 0 | SRC 0 | STK24 = 0

CCOc1nc(Nc2ccc(C(=O)N3CCOCC3)cc2OC)nc2[nH]ccc12 [LRRK2 inhibitor 1] (2.5 µM)
inactive: PDPK1 = 0 | PIK4CA 0 | PIK4CB 0 | PLK1 = 0 | PRKAA1 = 0 | PRKCA 0 | PTK2 = 0 | PTK2B 0 | RAF1 = 0 | [1] 0 | RET 0 | [2] 0 | RIOK1 = 0 | RIPK1 = 0 | RIPK2 = 0 | ROR2 = 0 | RPS6KA1 = 0 | SPHK1 = 0 | SRC 0 | STK24 = 0

COc1cc(C(C)=O)cc(OC)c1O [Acetosyringone] (10 µM)
inactive: PDPK1 = 0 | PIK4CA 0 | PIK4CB 0 | PLK1 = 0 | PRKAA1 = 0 | PRKCA 0 | PTK2 = 0 | PTK2B 0 | RAF1 = 0 | [1] 0 | RET 0 | [2] 0 | RIOK1 = 0 | RIPK1 = 0 | RIPK2 = 0 | ROR2 = 0 | RPS6KA1 = 0 | SPHK1 = 0 | SRC 0 | STK24 = 0

COc1ccc(CCNc2ncc3c(=O)n(-c4cccc(F)c4)c(=O)[nH]c3n2)cc1OC (2 µM)
inactive: PDPK1 = 0 | PIK4CA 0 | PIK4CB 0 | PLK1 = 0 | PRKAA1 = 0 | PRKCA 0 | PTK2 = 0 | PTK2B 0 | RAF1 = 0 | [1] 0 | RET 0 | [2] 0 | RIOK1 = 0 | RIPK1 = 0 | RIPK2 = 0 | ROR2 = 0 | RPS6KA1 = 0 | SPHK1 = 0 | SRC 0 | STK24 = 0

CCc1c(C)sc(NC(=S)NC(=O)c2ccc(Cl)cc2)c1C(N)=O (10 µM)
inactive: PDPK1 = 0 | PIK4CA 0 | PIK4CB 0 | PLK1 = 0 | PRKAA1 = 0 | PRKCA 0 | PTK2 = 0 | PTK2B 0 | RAF1 = 0 | [1] 0 | RET 0 | [2] 0 | RIOK1 = 0 | RIPK1 = 0 | RIPK2 = 0 | ROR2 = 0 | RPS6KA1 = 0 | SPHK1 = 0 | SRC 0 | STK24 = 0

C[C@@H]1CCc2ncc(F)cc2[C@H]2CCCN2c2ccn3ncc(c3n2)C(=O)N1 [Selitrectinib] (10 µM)
inactive: PDPK1 = 0 | PIK4CA 0 | PIK4CB 0 | PLK1 = 0 | PRKAA1 = 0 | PRKCA 0 | PTK2 = 0 | PTK2B 0 | RAF1 = 0 | [1] 0 | RET 0 | [2] 0 | RIOK1 = 0 | RIPK1 = 0 | RIPK2 = 0 | ROR2 = 0 | RPS6KA1 = 0 | SPHK1 = 0 | SRC 0 | STK24 = 0

NC(=O)c1ccc(-c2cnn3ccc(NCc4cccnc4)nc23)cc1 (2.5 µM)
inactive: PDPK1 = 0 | PIK4CA 0 | PIK4CB 0 | PLK1 = 0 | PRKAA1 = 0 | PRKCA 0 | PTK2 = 0 | PTK2B 0 | RAF1 = 0 | [1] 0 | RET 0 | [2] 0 | RIOK1 = 0 | RIPK1 = 0 | RIPK2 = 0 | ROR2 = 0 | RPS6KA1 = 0 | SPHK1 = 0 | SRC 0 | STK24 = 0

OCCN(CCO)c1ccc(C(c2ccc(Cl)cc2)c2ccc(N(CCO)CCO)cc2)cc1 (10 µM)
inactive: PDPK1 = 0 | PIK4CA 0 | PIK4CB 0 | PLK1 = 0 | PRKAA1 = 0 | PRKCA 0 | PTK2 = 0 | PTK2B 0 | RAF1 = 0 | [1] 0 | RET 0 | [2] 0 | RIOK1 = 0 | RIPK1 = 0 | RIPK2 = 0 | ROR2 = 0 | RPS6KA1 = 0 | SPHK1 = 0 | SRC 0 | STK24 = 0
